Molecules are shown by their SMILES. The list shows a part of the results. These are further read-outs of the screen, such as a control signal, another cell line or another target. No call is given for them. Compounds called inactive in the main read-out are mostly missing here. Words in brackets tell the shape of the fitted curve; partial curves, single points and poor fits give uncertain potencies.

This assay is described as follows: qHTS Assay for Modulators of Lamin A Splicing. Conditions: HeLa LMNA splicing GFP/RFP minigene ratio, 48 h. A digest of the protocol: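 Read-out is the ratio of GFP to DsRed2 object intensity, acquired by 488 nm laser-scanning cytometry on HeLa lamin A-EGFP minigene reporter cells. Compound incubation 48 hrs at 37 °C in Opti-MEM with 2% FBS; DMSO 0.5% final.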
In general terms: In qHTS, concentration-response curves come from the screen itself.

Setting [1] is: measured here: RFP viability control channel.
Setting [2] is: measured here: GFP splicing reporter channel.

One may read the AC50 as the midpoint of the concentration-response curve, whichever way the signal moves. For the compound `N/N=C(\c1ccccc1)C12CN3CN(CN(C3)C1)C2`, under setting [1], the AC50 is 1.26 µM [falling, partial curve].
Turning to `COC1CCN(C(=O)CC2C(=O)NCCN2CC(C)(C)C)CC1` (stereo not drawn), the AC50 under setting [1] was 1.58 µM [falling, partial curve].
For `Cc1cccc2nc(CSc3nc4ccccc4[nH]3)cn12`, the AC50 under setting [2] is 0.0891 µM [falling, full curve].
In the case of `COc1cccc2c1C(=O)c1c(O)c3c(c(O)c1C2=O)C[C@](O)(C(C)=O)C[C@H]3O[C@@H]1C[C@H](N)[C@H](O)[C@H](C)O1`, the AC50 under setting [2] is 2.82 µM [falling, partial curve, poor fit].
Consider `Cc1cccc(NC(=O)Nc2cccc(Oc3c(F)c(F)c(F)c(F)c3F)c2)c1`, for which the AC50 under setting [2] was 22.4 µM [rising, single point] and the AC50 under setting [1] is 17.8 µM [rising, single point].
As for `O=S(=O)(NCC1CCCO1)c1ccc(Oc2ccccc2)cc1` (stereo not drawn), the AC50 under setting [1] was 15.8 µM [rising, partial curve].
Take `Cc1cccc(C(=O)Nc2ccc(C(=O)OCc3cc(=O)n4c(C)csc4n3)cc2)c1`: the AC50 is, setting by setting: under setting [2], 35.5 µM [falling, single point]; under setting [1], 35.5 µM [falling, single point].
As for `CC(=O)c1ccc2c(c1)N(C)c1ccccc1S2`, the concentration at half-maximal activity (AC50) is 35.5 µM [falling, single point] under setting [2] and 35.5 µM [falling, single point] under setting [1].
In the case of `CCCCn1c(=O)c(F)cn(Cc2ccc(OC)c([N+](=O)[O-])c2)c1=O`, under setting [1], the AC50 is 1.58 µM [falling, partial curve, poor fit].
Consider `CS(=O)(=O)c1ccc2nnn(OCC(=O)Nc3ccc(Br)cc3Br)c2c1`, for which the AC50 under setting [2] is 17.8 µM [falling, partial curve, poor fit] and the AC50 under setting [1] is 0.562 µM [falling, full curve, poor fit].
For the compound `Cn1c(=O)c2c(SCCN3CCOCC3)nc(C3CCCC3)nc2n(C)c1=O`, the AC50 under setting [2] was 1.58 µM [rising, partial curve].
With `Cc1ccc(NC(=O)CN2CCC(C(=O)c3ccc4c(c3)OCCO4)CC2)cc1`, under setting [1], the AC50 was 15.8 µM [rising, single point].
Turning to `CC(C)c1cnc2c(c1SCC(=O)c1ccccc1)c(=O)n(C)c(=O)n2C`, the AC50 under setting [2] was 0.562 µM [rising, full curve] and the AC50 under setting [1] was 5.62 µM [rising, single point].
On to `COc1ccc2[nH]cc(CCNc3ncncc3-c3ccoc3)c2c1`, for which the AC50 under setting [2] was 2 µM [falling, full curve].
As for `Cc1ccc(NS(=O)(=O)c2ccc(Cl)c(NC(=S)NC(=O)C3CCCCC3)c2)cc1Cl`, under setting [1], the AC50 was 35.5 µM [falling, single point].
Still for that read-out and setting: next, `Nc1ccc(C(=O)Nc2ccc(OC(F)(F)C(F)F)c(NC(=O)c3ccc(N)cc3)c2)cc1`: 8.91 µM [rising, partial curve].
For `CCOC(=O)C1=C(C)NC(=S)NC1c1ccc(-c2cccc(Cl)c2C)o1` (stereo not drawn), under setting [1], the AC50 is 0.0112 µM [falling, partial curve].
In the case of `CN(C1CCS(=O)(=O)C1)S(=O)(=O)c1ccc(C2CCCCC2)cc1` (stereo not drawn), under setting [1], the AC50 is 14.1 µM [rising, single point].
With `O=C(CSc1ccccc1)NCc1ccc2c(c1)CCN2C(=O)c1ccccc1`, the AC50 under setting [2] was 1.12 µM [rising, partial curve, poor fit] and the AC50 under setting [1] was 0.891 µM [rising, full curve, poor fit].
On to `COc1ccc(OC)c(CNC(=O)c2ccc(NC(=O)c3nsc4ccccc34)cc2)c1`, for which, under setting [2], the AC50 is 0.501 µM [rising, partial curve, poor fit].
Turning to `CCOC(=O)CN1C(=O)C(CC)Oc2ccc(Cl)cc21` (stereo not drawn), under setting [2], the AC50 is 12.6 µM [rising, single point].
Take `Cc1ccc(N=C2NC(=O)CC(C(=O)Nc3ccc4c(c3)OCO4)S2)cc1` (stereo not drawn): the AC50 is, setting by setting: under setting [2], 0.708 µM [rising, partial curve, poor fit]; under setting [1], 1 µM [rising, full curve, poor fit].
In the case of `N=c1c2c(-c3ccccc3)c(-c3ccccc3)n(Cc3ccccc3)c2ncn1CCCn1ccnc1`, the AC50 runs as follows: under setting [2], 15.8 µM [falling, partial curve]; under setting [1], 11.2 µM [falling, partial curve].
Take `COc1ccc(/C=C/C(=O)c2ccc3c4c(cccc24)CC3)cc1OC`: the AC50 under setting [1] is 5.62 µM [rising, single point].
For `Cc1ccc(S(=O)(=O)C(C)C(=O)NCCS(=O)(=O)c2ccc(Cl)cc2)cc1` (stereo not drawn), the AC50 is 3.16 µM [falling, single point] under setting [2] and 14.1 µM [falling, single point] under setting [1].
On to `O=c1cc(O)nc(SCc2ccccc2)n1-c1ccc(Cl)cc1`, for which the AC50 is 4.47 µM [rising, single point] under setting [2] and 5.01 µM [rising, partial curve] under setting [1].
`CS(=O)(=O)Nc1ccc([N+](=O)[O-])cc1Oc1ccccc1`: the AC50 under setting [2] was 1.12 µM [falling, single point].
In the case of `COc1ccc(NC(=O)c2sc(N3CCOCC3)nc2-c2ccccc2)c(OC)c1`, the AC50 was 35.5 µM [rising, single point] under setting [2] and 31.6 µM [rising, partial curve] under setting [1].
`O=C(Cc1cn(Cc2cccc(Cl)c2)c2ccccc12)N1CCCCCC1`: under setting [1], the AC50 was 35.5 µM [rising, single point].
Consider `COc1ccc(C(=O)NCCN2CCOCC2)c(OC)c1`, for which, under setting [1], the concentration at half-maximal activity (AC50) is 0.0891 µM [rising, full curve, poor fit].
On to `CN1CCN(NC(=O)c2ccc(Cl)s2)CC1`, for which the AC50 under setting [1] was 0.0447 µM [falling, full curve, poor fit].
Turning to `Nc1ccccc1OCP(=O)(c1ccccc1)c1ccccc1`, under setting [1], the AC50 is 4.47 µM [falling, partial curve, poor fit].
On to `CCn1cc(C(=O)O)c(=O)c2cc(F)c(N3CCNC(C)C3)c(F)c21` (stereo not drawn), for which the AC50 under setting [2] is 0.002 µM [rising, full curve, poor fit].
Consider `NC(=O)c1cc[n+](CC2=C(C(=O)O)N3C(=O)[C@@H](NC(=O)C(c4ccccc4)S(=O)(=O)[O-])[C@H]3SC2)cc1` (stereo partly drawn), for which the AC50 under setting [1] was 0.794 µM [rising, partial curve, poor fit].
In the case of `Cc1ccc(NC(=O)c2c(C)oc3c2C2=NCCN2C=N3)cc1F`, the AC50 under setting [2] is 20 µM [falling, partial curve].
Regarding `O=c1ccc2c(OCCCCc3ccccc3)c3ccoc3cc2o1`, the AC50 by setting is: under setting [2], 14.1 µM [falling, single point]; under setting [1], 5.62 µM [falling, single point].
With `CCc1nc(SCC(=O)N2CCN(C(=O)c3ccco3)CC2)c2c3c(sc2n1)CCCC3`, the AC50 under setting [2] is 14.1 µM [rising, single point] and the AC50 under setting [1] was 15.8 µM [rising, single point].
Take `CC1CN(C(=O)c2cccn(Cc3c(Cl)cccc3Cl)c2=O)CC(C)O1` (stereo not drawn): the AC50 under setting [2] is 0.708 µM [falling, full curve, poor fit].
Same read-out and setting: next, `CN(CC(=O)NCc1ccc(F)cc1)S(=O)(=O)c1ccc2[nH]c3c(c2c1)CCCC3`: 5.01 µM [falling, partial curve, poor fit].
`COc1ccc(-c2ccc(-c3noc(C(C)C)n3)c(OC)n2)cc1`: the AC50 by setting is: under setting [2], 7.08 µM [rising, partial curve]; under setting [1], 17.8 µM [rising, partial curve, poor fit].
Consider `COc1ccc(OC)c(NC(=O)c2[nH]c(C)c(C(C)=O)c2C)c1`, for which, under setting [1], the AC50 is 15.8 µM [rising, partial curve].
As to `CCN(CC)S(=O)(=O)c1cccc(-c2nnc(SCCCC(=O)c3ccc(F)cc3)o2)c1`, the AC50 under setting [1] is 12.6 µM [rising, partial curve].
Consider `FC(F)(F)COc1nc(OCC(F)(F)F)nc(N2CCN(c3ccccc3)CC2)n1`, for which, under setting [1], the AC50 is 35.5 µM [rising, single point].
Take `O=C(c1ccc2c(c1)N(Cc1cccc(F)c1)C(=O)c1ccccc1S2)N1CCC2(CC1)OCCO2`: the AC50 is, setting by setting: under setting [2], 1.78 µM [falling, full curve, poor fit]; under setting [1], 5.62 µM [falling, single point].
Take `Cc1c(Cl)cccc1NC(c1ccc(F)cc1)c1nnc(-c2ccccc2)o1` (stereo not drawn): the AC50 under setting [1] is 0.141 µM [rising, full curve, poor fit].
Consider `Cc1ccc(Cc2cnc(NC(=O)c3ccco3)s2)cc1`, for which the AC50 under setting [1] was 35.5 µM [rising, single point].
Turning to `CCCNC(=O)/C=C/c1ccc(C(C)C)cc1`, the AC50 runs as follows: under setting [2], 0.282 µM [falling, full curve, poor fit]; under setting [1], 0.0251 µM [falling, full curve, poor fit].
In the case of `CCC1=NN2C(=N)/C(=C\c3cccn3-c3ccc(C)cc3C)C(=O)N=C2S1`, the AC50 under setting [2] is 0.708 µM [rising, partial curve, poor fit].
As to `NC(=O)c1c(C(F)(F)F)cc(-c2ccccc2)nc1NCCO`, the AC50 under setting [1] was 25.1 µM [rising, single point].
Take `COC(=O)[C@H]1Cc2cnoc2C[C@]1(C)C(=O)O`: under setting [1], the AC50 was 3.98 µM [rising, single point].
As for `Cc1ccc(-n2ncc(C(=O)NC3CCCCC3)c2C2CCN(C(=O)OC(C)(C)C)CC2)cc1`, the AC50 under setting [1] was 0.1 µM [falling, full curve, poor fit].
Consider `COc1cccc(C2C3=C(CC(C)(C)CC3=O)Nc3n[nH]c(C)c32)c1` (stereo not drawn), for which the AC50 under setting [1] was 1.58 µM [falling, full curve, poor fit].
Turning to `C/C=C(/C)C(=O)OC(C)(C)[C@@H]1Cc2c(ccc3ccc(=O)oc23)O1`, the AC50 under setting [1] is 22.4 µM [rising, single point].
Regarding `CCN(c1ccccc1C)S(=O)(=O)c1nnc(NC(=O)c2ccco2)s1`, the AC50 under setting [2] is 6.31 µM [rising, partial curve].
Turning to `O=C(Cc1ccc(F)cc1)Nc1cccc2cccnc12`, the AC50 under setting [2] is 2.51 µM [rising, single point].
On to `CC(=O)[C@@]1(O)CC[C@H]2[C@@H]3CCC4=CC(=O)CC[C@]4(C)[C@H]3[C@@H](O)C[C@@]21C`, for which the AC50 is 11.2 µM [rising, partial curve, poor fit] under setting [2] and 11.2 µM [rising, partial curve, poor fit] under setting [1].

Values taken from PubChem BioAssay AID1487 (National Center for Advancing Translational Sciences (NCATS), 2009).
